According to PMC10903754, “o-Vanillin binds covalently to MAL/TIRAP Lys-210 but independently inhibits TLR2” (Journal of Enzyme Inhibition and Medicinal Chemistry, 2024):
These are yes or no findings as the source states them, for the method shown.

Biological target: TIR domain of human MAL/TIRAP (MAL^TIR), residues 79-221 (human) (UniProt P58753)
Assay: condition: only 10 mM NaCl, 10 mM HEPES, pH 7.5, ~106 µM, 20 °C, for ~48 h; solution NMR; ~106 uM 13C-15N labelled MAL^TIR in 10 mM NaCl, 10 mM HEPES pH 7.5, 20 °C; both purified

binding: no binding
B1: TIR domain of human MAL/TIRAP (MAL^TIR), residues 79-221 (domain or fragment, UniProt P58753 79-221, looked up)
chain: SSRWSKDYDVCVCHSEEDLVAAQDLVSYLEGSTASLRCFLQLRDATPGGAIVSELCQALSSSHCRVLLITPGFLQDPWCKYQMLQALTEAPGAEGCTIPLLSGLSRAAYPPELRFMYYVDGRGPDGGFRQVKEAVMRYLQTLS
notes: MAL (MyD88 adaptor-like protein; TIRAP), human, TIR domain, residues 79-221; construct in the vector pMCSG7; For the NMR work the same construct was 13C-15N labelled and kept in low-salt buffer (10 mM HEPES pH 7.5, 10 mM NaCl); also called WT MAL^TIR; MyD88 adaptor-like protein TIR domain; source: E. coli BL21 (DE3), purified (Ni IMAC, TEV cleavage, SEC Superdex 75)
